From the supplement of paper PMC9744312 come the findings set out here.

Where a name gives a salt, the structure may show the parent alone. Some of the results follow. Single values of this set are uncertain.

The test system of this test is Peyronie's disease tunica albuginea primary fibroblasts. Put plainly: cell viability (DRAQ5 nuclear stain) relative to TGF-beta1-only control; higher = more viable cells. To be noted: 10 µM; TGF-beta1 10 ng/mL; 72 h.
On to `C=C1c2cccc(O)c2C(=O)C2=C(O)[C@]3(O)C(=O)C(C(N)=O)=C(O)[C@@H](N(C)C)[C@@H]3[C@@H](O)[C@H]12` [Methacycline HCl], for which the cell viability was found to be 97.3%.

For the molecule `c1ccc(C2CN3CCSC3=N2)cc1` (centres undefined) [Tetramisole HCl], the cell viability stood at 99%.

In the case of `CCCN[C@H]1CCc2nc(N)sc2C1` [Pramipexole], the cell viability turned out to be 92.5%.

`CCCN[C@H]1CCc2nc(N)sc2C1` [Pramipexole dihydrochloride]: the cell viability turned out to be 80.8%.

For `CCCN[C@H]1CCc2nc(N)sc2C1` [Pramipexole 2HCl Monohydrate], the cell viability was found to be 95%.

`CC(C)(C)Cn1c(N)nc2ccc(-c3[nH]c(C(C)(C)C)nc3-c3ccc(F)cc3)nc21`: the cell viability was 86.4%.

As for `O=C(NC1CCN(CCCCC2(C(=O)NCC(F)(F)F)c3ccccc3-c3ccccc32)CC1)c1ccccc1-c1ccc(C(F)(F)F)cc1` [Lomitapide], the cell viability worked out at 40.4%.

Regarding `O=C(NC1CCN(CCCCC2(C(=O)NCC(F)(F)F)c3ccccc3-c3ccccc32)CC1)c1ccccc1-c1ccc(C(F)(F)F)cc1` [Lomitapide Mesylate], the cell viability worked out at 50.4%.

On to `CCOC(=O)c1ccc(OC(=O)CCCCCNC(=N)N)cc1` [Gabexate Mesylate], for which the cell viability came out at 93.7%.

Regarding `COc1cccc(-c2ccc(NC(=O)C3=C(C(=O)O)CCC3)c(F)c2)c1` [Vidofludimus], the cell viability was found to be 79.6%.

With `COc1cc(/C=C/C(=O)N2CCN(CC(=O)N3CCCC3)CC2)cc(OC)c1OC` [Cinepazide maleate], the cell viability worked out at 86.7%.

As for `Nc1ncn([C@@H]2O[C@H](CO)[C@@H](O)[C@H]2O)c(=O)n1` [Azacitidine], the cell viability worked out at 72.5%.

For `CC(COc1ccccc1)N(CCCl)Cc1ccccc1` (centres undefined) [Phenoxybenzamine HCl], the cell viability turned out to be 70.1%.

In the case of `COc1ccc(CN(CCN(C)C)c2ccccn2)cc1` [Pyrilamine Maleate], the cell viability is 85.7%.

`CCCNC(C)C(=O)Nc1ccccc1C` (centres undefined) [Prilocaine]: the cell viability was 93.1%.

Regarding `CCCNC(C)C(=O)Nc1ccccc1C` (centres undefined) [Prilocaine hydrochloride], the cell viability came out at 74.4%.

For the molecule `CCCCC[C@H](O)/C=C/[C@@H]1[C@@H](C/C=C\CCCC(=O)O)[C@@H](O)C[C@H]1O` [Dinoprost tromethamine], the cell viability was 83.7%.

As to `CC(=O)c1ccc(S(=O)(=O)NC(=O)NC2CCCCC2)cc1` [Acetohexamide], the cell viability worked out at 101%.

For the molecule `Cc1c(-c2ccnn2C)cc(C(=O)NCc2ccc(S(C)(=O)=O)cn2)c(=O)n1-c1cccc(C(F)(F)F)c1` [Alvelestat (AZD9668)], the cell viability was found to be 88.6%.

In the case of `CCOC(=O)[C@H](CCc1ccccc1)N[C@H]1CCc2ccccc2N(CC(=O)O)C1=O` [Benazepril HCl], the cell viability came out at 97.4%.

On to `COC1=C(OC)C(=O)C(CCCCCCCCCCO)=C(C)C1=O` [Idebenone], for which the cell viability worked out at 90.3%.

`NCCCC[C@H](N[C@@H](CCc1ccccc1)C(=O)O)C(=O)N1CCC[C@H]1C(=O)O` [Lisinopril]: the cell viability was determined as 89.4%.

Take `O=C(Nc1cccc2c(=O)cc(-c3nnn[nH]3)oc12)c1ccc(OCCCCc2ccccc2)cc1` [Pranlukast]: the cell viability turned out to be 84.5%.

Consider `CC(C)(C)NC[C@H](O)COc1nsnc1N1CCOCC1` [Timolol Maleate], for which the cell viability was 70.2%.

With `CO/N=C(\C(=O)N[C@@H]1C(=O)N2C(C(=O)O)=C(CSc3nc(=O)c(O)nn3C)CS[C@H]12)c1csc(N)n1` [Ceftriaxone Sodium], the cell viability worked out at 26.3%.

On to `CO/N=C(\C(=O)N[C@@H]1C(=O)N2C(C(=O)O)=C(CSc3nc(=O)c(O)nn3C)CS[C@H]12)c1csc(N)n1` [Ceftriaxone Sodium Trihydrate], for which the cell viability was determined as 98.9%.

As for `CO[C@@H]1[C@@H](OC(N)=O)[C@@H](O)[C@H](Oc2ccc3c(O)c(NC(=O)c4ccc(O)c(CC=C(C)C)c4)c(=O)oc3c2C)OC1(C)C` [Novobiocin Sodium], the cell viability is 86.2%.

For `C=C=CCNC(=O)c1ccc(F)cc1` [Diastase], the cell viability was determined as 86.3%.

For `CCN1CCN(C(=O)N[C@@H](C(=O)N[C@@H]2C(=O)N3[C@@H]2SC(C)(C)[C@@H]3C(=O)O)c2ccccc2)C(=O)C1=O` [Piperacillin Sodium], the cell viability stood at 86.5%.

Take `CCCC(=O)Nc1ncnc2c1ncn2[C@@H]1O[C@@H]2COP(=O)(O)O[C@H]2[C@H]1OC(=O)CCC` [Dibutyryl-cAMP (Bucladesine)]: the cell viability is 88.9%.

With `CN(C)CCC[C@@]1(c2ccc(F)cc2)OCc2cc(C#N)ccc21` [Escitalopram Oxalate], the cell viability was found to be 89.9%.

Take `CN1CCCC(n2nc(Cc3ccc(Cl)cc3)c3ccccc3c2=O)CC1` (centres undefined) [Azelastine HCl]: the cell viability was found to be 84.3%.

`CN1CCCCC1CCN1c2ccccc2Sc2ccc([S+](C)[O-])cc21` (centres undefined) [Mesoridazine Besylate]: the cell viability turned out to be 103%.

With `NC(=O)N/N=C/c1ccc([N+](=O)[O-])o1` [Nitrofural], the cell viability came to 87%.

Regarding `CC(C)C[C@H](NC(=O)[C@H](CCc1ccccc1)NC(=O)CN1CCOCC1)C(=O)N[C@@H](Cc1ccccc1)C(=O)N[C@@H](CC(C)C)C(=O)[C@@]1(C)CO1` [Carfilzomib (PR-171)], the cell viability was 30.6%.

As to `N=C(N)NC(=N)N1CCOCC1` [Moroxydine HCl], the cell viability was determined as 89.5%.

Take `CC(=O)Oc1cccc2c1C(=O)c1c(OC(C)=O)cc(C(=O)O)cc1C2=O` [Diacerein]: the cell viability is 87.7%.

As to `N[C@H]1C(O)O[C@H](CO)[C@@H](O)[C@@H]1O` (some centres undefined) [Glucosamine sulfate], the cell viability turned out to be 85.9%.

With `N[C@H]1C(O)O[C@H](CO)[C@@H](O)[C@@H]1O` (some centres undefined) [Glucosamine hydrochloride], the cell viability was 86.9%.

Turning to `CN(C)CCc1c[nH]c2ccc(Cn3cncn3)cc12` [Rizatriptan Benzoate], the cell viability stood at 91.8%.

Turning to `OCCN1CCN(CCCN2c3ccccc3Sc3ccc(Cl)cc32)CC1` [Perphenazine], the cell viability was determined as 79%.

As to `Nc1ccc(S(=O)(=O)c2ccc(N)cc2)cc1` [Dapson], the cell viability turned out to be 82.7%.

Regarding `CC1(C)OC(=O)NC1=O` [5,5-Dimethyloxazolidine-2,4-dione], the cell viability was found to be 86%.

As to `Nc1ccc(C(=O)NCC(=O)O)cc1` [Sodium 4-aminohippurate Hydrate], the cell viability came to 91.2%.

For the molecule `COc1ccc(NS(=O)(=O)c2ccc(N)cc2)nn1` [Sulfamethoxypyridazine], the cell viability was 85.4%.

For the molecule `CCC[C@H](N[C@@H](C)C(=O)N1[C@H](C(=O)O)C[C@@H]2CCCC[C@@H]21)C(=O)OCC` [Perindopril Erbumine], the cell viability stood at 92.7%.

For the molecule `CCCC(=O)O[C@]1(C(=O)COC(C)=O)CC[C@H]2[C@@H]3C[C@H](F)C4=CC(=O)C=C[C@]4(C)[C@@]3(F)[C@@H](O)C[C@@]21C` [Difluprednate], the cell viability was determined as 85.6%.

Regarding `Cn1ncc(Cl)c1-c1cc(C(=O)N[C@H](CN)Cc2ccc(F)c(F)c2)oc1Cl`, the cell viability was determined as 63.4%.

Consider `O=C(CCCN1CC=C(n2c(=O)[nH]c3ccccc32)CC1)c1ccc(F)cc1` [Droperidol], for which the cell viability worked out at 104%.

Turning to `Oc1c(I)cc(I)c2cccnc12` [Diiodohydroxyquinoline], the cell viability was 60.9%.

Turning to `C#CCN(C)Cc1ccccc1` [Pargyline hydrochloride], the cell viability came to 85.7%.

`C[C@H]1[C@@H](O)O[C@@H]2O[C@@]3(C)CC[C@H]4[C@H](C)CC[C@@H]1[C@@]24OO3` [Dihydroartemisinin (DHA)]: the cell viability stood at 80.7%.

For the molecule `COc1ccc2cc(CCC(C)=O)ccc2c1` [Nabumetone], the cell viability was 89.2%.

Consider `Cc1ccc(S(=O)(=O)NC(=O)NN2CC3CCCC3C2)cc1` (centres undefined) [Gliclazide], for which the cell viability turned out to be 85.1%.

Consider `CC1(C)S[C@@H]2[C@H](NC(=O)Cc3ccccc3)C(=O)N2[C@H]1C(=O)O.CCN(CC)CCOC(=O)c1ccc(N)cc1` [Penicillin G Procaine], for which the cell viability came to 83%.

Consider `CC(C)OC(=O)CCC/C=C\C[C@@H]1[C@@H](/C=C/C(F)(F)COc2ccccc2)[C@H](O)C[C@@H]1O` [Tafluprost], for which the cell viability worked out at 94.1%.

For the molecule `CCn1cc(C(=O)O)c(=O)c2cnc(N3CCNCC3)nc21` [Pipemidic acid], the cell viability worked out at 89.5%.

`NCCS(=O)(=O)O` [Taurine]: the cell viability amounted to 88.6%.

Turning to `CCCCS(=O)(=O)N[C@@H](Cc1ccc(OCCCCC2CCNCC2)cc1)C(=O)O` [Tirofiban Hydrochloride], the cell viability was 96.2%.

As to `COc1nc(C)nc(Cl)c1NC1=NCCN1` [Moxonidine], the cell viability turned out to be 84.8%.

As for `Cc1ccc(NC(=O)c2ccc(CN3CCN(C)CC3)cc2)cc1Nc1nc(-c2cccnc2)cs1` [Masitinib (AB1010)], the cell viability stood at 82.6%.

As to `C=CC[C@@H]1/C=C(\C)C[C@H](C)C[C@H](OC)[C@H]2O[C@@](O)(C(=O)C(=O)N3CCCC[C@H]3C(=O)O[C@H](/C(C)=C/[C@@H]3CC[C@@H](O)[C@H](OC)C3)[C@H](C)[C@@H](O)CC1=O)[C@H](C)C[C@@H]2OC` [Tacrolimus (FK506)], the cell viability turned out to be 102%.

With `O=C([O-])c1ccccc1O.[Na+]` [Sodium salicylate], the cell viability amounted to 98.2%.

With `COc1ccc2[nH]cc(CCNC(C)=O)c2c1` [Melatonin], the cell viability is 66.4%.

As for `Cc1ccc(C(=O)c2cc(O)c(O)c([N+](=O)[O-])c2)cc1` [Tolcapone], the cell viability was determined as 106%.

Turning to `COc1cc(CNC(=O)CCCCC=CC(C)C)ccc1O` [Capsaicin(Vanilloid)], the cell viability came out at 98.1%.

In the case of `CCN(Cc1ccncc1)C(=O)C(CO)c1ccccc1` (centres undefined) [Tropicamide], the cell viability was found to be 86.9%.

In the case of `CCN(CC)CC#CCOC(=O)C(O)(c1ccccc1)C1CCCCC1` (centres undefined) [Oxybutynin], the cell viability is 93%.

On to `CCN(CC)CC#CCOC(=O)C(O)(c1ccccc1)C1CCCCC1` (centres undefined) [Oxybutynin chloride], for which the cell viability was 85.9%.

Consider `Cc1ncc([N+](=O)[O-])n1CCO` [Metronidazole], for which the cell viability turned out to be 82.3%.

Turning to `CN1C2CCCC1CC(NC(=O)c1nn(C)c3ccccc13)C2` (centres undefined) [Granisetron HCl], the cell viability was determined as 101%.

As for `CN1C2CCCC1CC(NC(=O)c1nn(C)c3ccccc13)C2` (centres undefined) [Granisetron], the cell viability is 83.7%.

Consider `CC(C)N1CCN(c2ccc(OCC3COC(Cn4cncn4)(c4ccc(Cl)cc4Cl)O3)cc2)CC1` (centres undefined) [Terconazole], for which the cell viability amounted to 84.6%.

As to `CCCc1cc(=O)[nH]c(=S)[nH]1` [Propylthiouracil], the cell viability was 89.7%.

Usually cell viability stands for a read-out of living cells in per cent, often relative to untreated cells.
